In article PMC9842414:
Results are given in words; binding and its absence hold for the method and conditions named. Binding seen in cells or lysates may run through a third protein. Some results given as binding are weak or reduced against the parent protein; the word gives no strength. For part of these data: Tags and fused reporters may be left off the sequences shown. Each block holds one molecule with its values, some of them ahead of it.

Sequences of proteins named here, by UniProt entry; tags and fusion partners are left off.
UniProt Q9C030: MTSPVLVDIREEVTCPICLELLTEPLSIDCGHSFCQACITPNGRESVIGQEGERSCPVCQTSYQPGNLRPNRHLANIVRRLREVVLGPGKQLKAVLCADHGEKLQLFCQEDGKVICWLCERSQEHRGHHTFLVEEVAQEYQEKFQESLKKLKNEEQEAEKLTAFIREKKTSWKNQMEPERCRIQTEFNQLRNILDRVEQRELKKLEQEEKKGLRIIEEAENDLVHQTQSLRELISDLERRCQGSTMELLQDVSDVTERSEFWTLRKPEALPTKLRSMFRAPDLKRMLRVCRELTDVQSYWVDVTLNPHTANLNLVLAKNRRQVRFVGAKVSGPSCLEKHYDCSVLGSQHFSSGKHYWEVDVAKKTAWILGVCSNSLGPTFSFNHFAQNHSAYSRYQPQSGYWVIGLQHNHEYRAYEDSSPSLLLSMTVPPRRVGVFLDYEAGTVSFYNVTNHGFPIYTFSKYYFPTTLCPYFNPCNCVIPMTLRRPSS

Legend:
[1] = biological target: T1, HA-tagged SLC1A5 (human) (UniProt Q15758); experiment: co-IP; lysates of HEK293T cells transiently transfected with Flag-TRIM6 and HA-SLC1A5; immunoprecipitation with anti-Flag or anti-HA antibodies, immunoblot
T1 sequence: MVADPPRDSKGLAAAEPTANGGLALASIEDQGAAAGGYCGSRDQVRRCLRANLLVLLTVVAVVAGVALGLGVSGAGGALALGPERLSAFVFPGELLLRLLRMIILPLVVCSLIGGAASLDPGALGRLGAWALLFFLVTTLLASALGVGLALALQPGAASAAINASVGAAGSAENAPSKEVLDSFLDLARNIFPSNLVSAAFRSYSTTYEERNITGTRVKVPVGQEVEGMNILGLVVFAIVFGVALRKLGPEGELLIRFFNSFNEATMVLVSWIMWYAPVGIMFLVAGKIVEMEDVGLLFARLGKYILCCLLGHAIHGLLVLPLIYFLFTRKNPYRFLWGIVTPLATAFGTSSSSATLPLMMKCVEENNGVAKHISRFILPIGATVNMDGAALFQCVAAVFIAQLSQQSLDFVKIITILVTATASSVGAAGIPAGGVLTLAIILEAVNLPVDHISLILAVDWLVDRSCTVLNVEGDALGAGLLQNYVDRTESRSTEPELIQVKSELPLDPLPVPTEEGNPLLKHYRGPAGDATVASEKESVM

[2] = biological target: Tripartite motif 6 (TRIM6), endogenous in H460 cells (human (endogenous in H460)) (UniProt Q9C030); experiment: co-IP; endogenous proteins in H460 lysates (IP lysis buffer); primary antibodies or IgG at 4°C overnight, Protein A/G-agarose beads at room temperature 2 h, washed 5 times, immunoblot
[3] = biological target: Flag-tagged TRIM6 (human) (UniProt Q9C030); experiment: co-IP; lysates of HEK293T cells transiently transfected with Flag-TRIM6 and HA-SLC1A5; immunoprecipitation with anti-Flag or anti-HA antibodies, immunoblot

binding [1]: binds
Molecule: Flag-tagged TRIM6 (from UniProt Q9C030 1-488)

binding [2]: binds
B1: Solute carrier family 1 member 5 (SLC1A5), endogenous in H460 cells (protein, UniProt Q15758 1-541)
chain: T1 sequence

binding [3]: binds
B2: HA-tagged SLC1A5 (protein, UniProt Q15758 1-541)
chain: T1 sequence
